Experimental data from the supplement of paper PMC9578143, “Small-Molecule Ebselen Binds to YTHDF Proteins Interfering with the Recognition of N^6-Methyladenosine-Modified RNAs” (ACS Pharmacology & Translational Science, 2022).
The other results are listed elsewhere or left out. Part of the spread comes from offsets between plates or batches.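 Hits were defined as a z-score below −3.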

Each compound was assayed against T1, YTHDF1 YTH domain (aa 365-554) (UniProt Q9BYJ9) (assay: tryptophan fluorescence intensity z-score (mean); higher = higher fluorescence, less quenching (negative = binding / quenching)). Details: 10 µM.
T1 sequence (whole entry): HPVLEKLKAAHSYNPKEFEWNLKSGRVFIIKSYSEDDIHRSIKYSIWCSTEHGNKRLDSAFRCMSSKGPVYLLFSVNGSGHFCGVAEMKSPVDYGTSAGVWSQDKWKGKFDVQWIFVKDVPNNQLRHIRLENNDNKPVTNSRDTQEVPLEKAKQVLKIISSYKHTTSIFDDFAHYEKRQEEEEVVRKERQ

Compound	tryptophan fluorescence intensity z-score
C=CC[C@]1(O)CC[C@H]2[C@@H]3CCC4=CC(=O)CCC4=C3C=C[C@@]21C (plate: M 11-12)	inactive: -0.411
OC[C@@H]1CCCN2CCCC[C@H]12 (plate: M 19-20)	inactive: 0.323
C1CCc2nnnn2CC1 (plate: M 13-14)	inactive: 0.659
CC(Cc1ccc(O)cc1)NCC(O)c1cc(O)cc(O)c1 (configuration not stated) (plate: M 7-8)	inactive: -0.0761
C=C[C@H]1CN2CC[C@H]1C[C@@H]2[C@@H](O)c1ccnc2ccccc12 (plate: M 5-6)	inactive: 0.121
CC(C)N(CCC(C(N)=O)(c1ccccc1)c1ccccn1)C(C)C (configuration not stated) (plate: M 3-4)	inactive: -0.5
CC[C@@]1(O)C[C@H](O[C@H]2C[C@H](N(C)C)[C@H](O)[C@H](C)O2)c2c(cc3c(c2O)C(=O)c2c(O)cccc2C3=O)[C@H]1C(=O)OC (plate: M 15-16)	inactive: 0.583
C[C@H](N)[C@H](O)c1ccc(O)c(O)c1 (plate: M 3-4)	inactive: 0.118
O=[N+]([O-])O[C@@H]1CO[C@H]2[C@@H]1OC[C@@H]2O (plate: M 9-10)	inactive: -0.101
OC1CCCCC1N1CCC(c2ccccc2)CC1 (configuration not stated) (plate: M 13-14)	inactive: 1.03
N[C@@H](Cc1ccc(N(CCCl)CCCl)cc1)C(=O)O (plate: M 3-4)	inactive: 0.0419
CC(C)=CCOc1c2occc2cc2ccc(=O)oc12 (plate: M 15-16)	inactive: 0.67
CC1=CC(=O)c2c(O)cccc2C1=O (plate: M 19-20)	inactive: 0.256
O=C1CN=C(c2ccccc2Cl)c2cc([N+](=O)[O-])ccc2N1 (plate: M 11-12)	inactive: -0.307
CN1[C@@H]2CC[C@H]1C[C@@H](OC(=O)[C@H](CO)c1ccccc1)C2 (plate: M 3-4)	inactive: 0.37
CC(=O)O[C@H]1C[C@@H](OC(C)=O)C(C)(C)C2C[C@@H](OC(C)=O)[C@]3(C)C(CC[C@@]4(C)[C@H](c5ccoc5)C(=O)[C@H]5O[C@]543)[C@]21C (some centres not stated) (plate: M 13-14)	inactive: 0.337
C=C(C)[C@H]1CN[C@H](C(=O)O)[C@H]1CC(=O)O (plate: M 21-22)	inactive: -0.419
C[C@@H]1CC[C@@]2(OC1)O[C@H]1[C@@H](O)[C@H]3[C@@H]4CC[C@H]5C[C@@H](O[C@@H]6O[C@H](CO)[C@H](O[C@@H]7O[C@H](CO)[C@@H](O)[C@H](O[C@@H]8OC[C@@H](O)[C@H](O)[C@H]8O)[C@H]7O[C@@H]7O[C@H](CO)[C@H](O)[C@H](O[C@@H]8O[C@H](CO)[C@@H](O)[C@H](O)[C@H]8O)[C@H]7O)[C@H](O)[C@H]6O)[C@H](O)C[C@]5(C)[C@H]4CC[C@]3(C)[C@H]1[C@@H]2C (plate: M 21-22)	inactive: 0.364
Cc1cc(O)ccc1Cl (plate: M 1-2)	inactive: 0.0374

A few values from the results shown.
`C=CC[C@]1(O)CC[C@H]2[C@@H]3CCC4=CC(=O)CCC4=C3C=C[C@@]21C` (plate: M 11-12) | tryptophan fluorescence intensity z-score: inactive: -0.411
`CC1=CC(=O)c2c(O)cccc2C1=O` (plate: M 19-20) | tryptophan fluorescence intensity z-score: inactive: 0.256

(list continues)

Compound	tryptophan fluorescence intensity z-score
C=C[C@H]1CN2CC[C@H]1C[C@H]2[C@H](OC(=O)OCC)c1ccnc2ccc(OC)cc12 (plate: M 1-2)	inactive: 0.259
Nc1ncn[nH]1 (plate: M 23-24)	inactive: 0.584
CCCCC[C@H]1C(=O)O[C@H](C)[C@H](NC(=O)c2cccc(NC=O)c2O)C(=O)O[C@@H](C)[C@@H]1OC(=O)CC(C)C [ANTIMYCINA(A1shown)] (plate: M 19-20)	inactive: 0.365
CC[C@H]1CN2CC[C@H]1C[C@@H]2[C@@H](O)c1ccnc2ccc(OC)cc12 (plate: M 21-22)	inactive: 0.319
CC(C)=CCCC1(C)C=Cc2c(O)c3c(c(CC=C(C)C)c2O1)OC12C(CC4CC1C(C)(C)OC2(C/C=C(/C)C(=O)O)C4O)C3=O (configuration not stated) (plate: M 15-16)	inactive: -1.54
N.N.[Cl][Pt][Cl] (plate: M 7-8)	inactive: -0.438
CCCN1C[C@H](CSC)C[C@@H]2c3cccc4[nH]cc(c34)C[C@H]21 (plate: M 9-10)	inactive: 1.5
CC(=O)Oc1ccc(/C=C/c2cc(OC(C)=O)cc(OC(C)=O)c2)cc1 (plate: M 19-20)	inactive: 0.498
N#C/C(=C\c1ccc(O)cc1)C(=O)O [alpha-CYANO-4-HYDROXYCINNAMICACID] (plate: M 23-24)	inactive: -0.26
CC1=C(O)C(=O)C=C2C1=CC=C1[C@@]2(C)CC[C@@]2(C)[C@@H]3C[C@](C)(C(=O)O)CC[C@]3(C)CC[C@]12C (plate: M 15-16)	inactive: 0.156
Oc1cccc2cccnc12 (plate: M 3-4)	inactive: 0.0016
Cc1ncc(CNC(=O)N(CCCl)N=O)c(N)n1 (plate: M 23-24)	inactive: 0.0577
CCC12C=CCN3CC[C@@]4(c5ccc(OC)cc5N(C)[C@H]4[C@@](O)(C(=O)OC)[C@@H]1OC(C)=O)[C@@H]32 (some centres not stated) (plate: M 19-20)	inactive: 0.589
CN1CCCCC1c1ccc(-c2cccnc2)nc1 (configuration not stated) (plate: M 19-20)	inactive: 0.467
CCCCCCCCCc1ccc(O)cc1 (plate: M 21-22)	inactive: 0.371
CNc1ccc(C(=O)CC(O)CCC(C)C2OC(=O)CC(O)CC(=O)CC(O)CC(O)CC(O)CC(O)CC3(O)CC(O)C(C(=O)OC)C(CC(O[C@@H]4O[C@H](C)[C@@H](O)[C@H](N)[C@@H]4O)/C=C/C=C/C=C/C=C/C=C/C=C/C=C/C2C)O3)cc1.COC(=O)C1C(O)CC2(O)CC(O)CC(O)CC(O)CC(O)CC(=O)CC(O)CC(=O)OC(C(C)CCC(O)CC(=O)c3ccc(N)cc3)C(C)/C=C/C=C/C=C/C=C/C=C/C=C/C=C/C(O[C@@H]3O[C@H](C)[C@@H](O)[C@H](N)[C@@H]3O)CC1O2 (some centres not stated) (plate: M 13-14)	inactive: 0.309
CC[C@@]1(O)C(=O)OCc2c1cc1n(c2=O)Cc2cc3ccccc3nc2-1 (plate: M 19-20)	inactive: 0.181
O=C1C[C@@H]2OCC=C3CN4CC[C@]56c7ccccc7N1[C@H]5[C@H]2[C@H]3C[C@H]46 (plate: M 5-6)	inactive: -0.183
